60 compounds from PubChem BioAssay AID1794844 (National Center for Advancing Translational Sciences (NCATS), 2023) can be followed below.

Sequences of proteins named here, by UniProt entry; tags and fusion partners are left off. A change or cut given only in a name is not applied to a line headed by its entry.
UniProt C7C422: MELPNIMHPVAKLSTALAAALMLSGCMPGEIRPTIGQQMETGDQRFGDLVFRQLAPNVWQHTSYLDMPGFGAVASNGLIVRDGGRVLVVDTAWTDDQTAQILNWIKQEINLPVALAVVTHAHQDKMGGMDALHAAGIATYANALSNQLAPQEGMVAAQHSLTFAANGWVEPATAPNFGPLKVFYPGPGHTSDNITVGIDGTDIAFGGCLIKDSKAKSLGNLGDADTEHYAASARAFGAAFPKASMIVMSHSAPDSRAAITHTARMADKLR

The campaign covered roughly 2,800 compounds. Fewer than 10 were called active. Roughly 7% stayed inconclusive and do not appear here. Calls follow the shape of the dose curve; as a rule, active = well fitted inhibition curve with a large enough effect; inconclusive = small, poorly fitted or top-dose-only effect; inactive = no such curve, though single readings can be large or run the other way. This is one part of the list.

In this assay the target is Metallo-beta-lactamase type 2 (Klebsiella pneumoniae) (UniProt C7C422). Put plainly: qHTS to identify inhibitors of the New Delhi Metallo-beta-lactamase (NDM): Nitrocefin screen against the machine-based learning selections. Also: % of control where 0% means no effect. Conditions: NDM-1 enzyme, nitrocefin hydrolysis, absorbance 485 nm; activity, negative = inhibition: at the top concentration. The method, boiled down:
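NDM-1 (2 nM final) in 50 mM HEPES pH 7.0, 1 uM Zn2SO4, 0.01% Tween20 was preincubated with compounds for >30 min. Nitrocefin (16.7 uM final) was read at 485 nm after 15 min, and meropenem (50 uM final) at 300 nm after 30 min.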
For orientation: qHTS replaces the single test concentration by a dilution series.
In the case of `CNC(=O)[C@@H](Cc1ccccc1)N1CCC[C@H]1C(=O)NC1CCOCC1`, the “activity, negative = inhibition” value is inactive: -20.8% [at 57.5 µM].
Turning to `Cc1ccccc1NC(=O)Cn1c(-c2cccc(Cl)c2)nc(C)c(CCO)c1=O`, the “activity, negative = inhibition” value is inactive: 16.6%.
As for `COc1ccccc1-c1[nH]nc2ncc(-c3ccccc3O)nc12`, the “activity, negative = inhibition” value was inactive: 1.8% [at 57.5 µM].
Consider `O=C(O)c1ccc(CN2CC[C@@H](c3ccc4ccccc4c3)[C@H](O)C2)cc1`, for which the “activity, negative = inhibition” value was inactive: 3.48%.
On to `CC(C)C1C(=O)N(C)CCN1C(=O)c1cc(COc2cccc(F)c2)[nH]n1` (stereo not given), for which the “activity, negative = inhibition” value was inactive: -6.59%.
As to `CC1=C[C@@H](CNC(=O)CC(C)(C)CC(=O)O)[C@H](C(C)C)C[C@H]1Cc1nc2ccccc2n1C`, the “activity, negative = inhibition” value was inactive: -7.02%.
With `Brc1ccc(CN2CCC(c3nc4ccncc4[nH]3)C2)cc1` (stereo not given), the “activity, negative = inhibition” value was inactive: 6.95%.
As to `O=C(c1cccc(O)c1)N1CCNc2cnc(Nc3cccc(F)c3)nc2C1`, the “activity, negative = inhibition” value was inactive: -1.19% [at 57.5 µM].
With `COCCn1nc2n(c1=O)CCN(S(=O)(=O)c1c(C)nn(C)c1C)CC2` the figure was inactive: -2.42%; with `COc1ccc(S(=O)(=O)N2C[C@@H](F)C[C@H]2C(=O)N2CCCCC2)cc1OC`, inactive: -1.97%; with `O=C(O)c1cc(-c2cccc(CO)c2)cc(S(=O)(=O)NC2CCCC2)c1`, inactive: -4.47%.
On to `COCCOc1ncccc1-c1noc([C@@H]2CCCN2C2CCN(C)CC2)n1`, for which the “activity, negative = inhibition” value was inactive: -1.06% [at 57.5 µM].
For `Cc1ccccc1-c1cnc2[nH]cc(CC(=O)NCCN3CCOCC3)c2c1`, the “activity, negative = inhibition” value was inactive: 1.35% [at 57.5 µM].
Consider `CN1C[C@@H](NC(=O)c2ccccn2)C[C@H]1c1nc(-c2ccc(Cl)cc2)no1`, for which the “activity, negative = inhibition” value was inactive: 2.39% [at 57.5 µM].
On to `O=C(O)c1cc(-c2ccccc2CO)cc(S(=O)(=O)N2CCCCCC2)c1`, for which the “activity, negative = inhibition” value was inactive: 5.45%.
For `O=C(O)C[C@@H]1CCN(S(=O)(=O)c2ccccc2)C[C@@H]1CCN1CCN(c2cccc(C(F)(F)F)c2)CC1`, the “activity, negative = inhibition” value was inactive: -10.8%.
With `O=C(Nc1ccccc1)Nc1ccc(=O)n2c1[C@@H]1C[C@@H](CN(C(=O)COc3ccccc3)C1)C2`, the “activity, negative = inhibition” value is inactive: -2.89%.
`COCc1nc(C2CCCN(C(=O)c3nccn3C)C2)no1` (stereo not given): the “activity, negative = inhibition” value is inactive: -3.96%.
With `O=C(C[C@@H]1O[C@H](CNS(=O)(=O)c2ccc(Cl)cc2)[C@@H](O)[C@H]1O)N1CCN(c2ccc(F)cc2)CC1` the figure was inactive: 14.7%; with `CN(Cc1cccnc1)Cc1nc(C2(O)CCN(Cc3ccc(F)cc3)CC2)cs1`, inactive: -7.36% [at 57.5 µM]; with `COCCn1ncc(N2CCC(NC(=O)C(C)C)CC2)cc1=O`, inactive: -4.74%.
Regarding `COc1ccc(C[C@H](NC(=O)[C@@]2(O)C[C@@H](O)[C@H](O)[C@@H](NC(=O)Nc3ccc(C)cc3)C2)C(N)=O)cc1`, the “activity, negative = inhibition” value was inactive: -1.82%.
As for `COc1ccc(CCC(=O)N2CCC3(CC2)CCC(O)(CN(C)C)CC3)cc1`, the “activity, negative = inhibition” value is inactive: 6.82%.
With `COCC(=O)N[C@H]1CO[C@H]2[C@@H]1OC[C@@H]2Nc1nccc(-c2cccc(C#N)c2)n1`, the “activity, negative = inhibition” value was inactive: 4.59% [at 57.5 µM].
With `O=S(=O)(c1ccc(F)cc1)N1CCCC(Cc2noc(-c3cnccn3)n2)C1` (stereo not given) the figure was inactive: -2.02%; with `COc1ccc(CCc2nc3nccc(-c4ccc(OC)c(OC)c4)n3n2)cc1OC`, inactive: 2.07%.
For `OC1(CN2CCCCC2)CCN(Cc2ccc(C(F)(F)F)cc2F)C1` (stereo not given) the value was inactive: 1.52%; for `COc1cccc(CC(=O)N[C@@H]2CCC[C@@H](C(=O)NCc3cc(F)cc(F)c3)CC(=O)N(C)C2)c1`, inactive: 0.922%; for `O=c1c2c(CO)c(-c3ccc(F)cc3)nn2ccn1Cc1cc(F)ccc1F`, inactive: -7.08%.
As for `COCc1cc(CNC(=O)c2cn(C3CCC(N)CC3)nn2)[nH]n1` (stereo not given), the “activity, negative = inhibition” value is inactive: -1.37%.
For the compound `Cn1ccc2c(C(=O)N[C@H](c3cccs3)C3CC(O)C3)cccc21` (stereo not given in full), the “activity, negative = inhibition” value was inactive: -3.78%.
As to `OCC1(O)CCN(C2CCN(c3ccc4c(c3)OCO4)CC2)CC1`, the “activity, negative = inhibition” value is inactive: -2.79%.
Take `O=C(CN1CCOc2ccccc2C1)N[C@H]1CCOC[C@H]1C1CCOCC1`: the “activity, negative = inhibition” value is inactive: 1.59%.
On to `COC(=O)[C@H](Cc1ccc(OC)cc1)NC(=O)[C@@H]1CN(C(=O)c2cccc(F)c2)CCN1C(C)=O`, for which the “activity, negative = inhibition” value was inactive: -10.5%.
Take `COC[C@H]1CCCN1C(=O)C(C)[C@@H]1CC[C@@]2(C)CC[C@H](NC(C)=O)[C@@H](C)[C@@H]2[C@H]1O` (stereo not given in full): the “activity, negative = inhibition” value is inactive: -3.87% [at 57.5 µM].
For `CC[C@H]1CN(S(=O)(=O)c2ccccc2)CC[C@H]1CC(=O)NCCOC` the value was inactive: 2.78% [at 57.5 µM].
With `O=C1Cc2c(-c3cccc(O)c3)n[nH]c2CN1CC1CC1` the figure was inactive: -0.331% [at 76.7 µM]; with `O=C(N[C@H]1CCN2C(=O)[C@@H](Cc3c[nH]c4ccccc34)NC(=O)[C@H]12)c1cnccn1`, inactive: -5.81% [at 57.5 µM].
As for `CN(C)CCN1CC2(CCCN(C(=O)CN(C)c3ccccc3)C2)CCC1=O` (stereo not given), the “activity, negative = inhibition” value is inactive: -14.1%.
With `c1ccc(-c2cn3c(n2)CO[C@@H](CNCc2cccs2)C3)cc1` the figure was inactive: 3.52% [at 57.5 µM].
`COc1ccc(C(=O)N2CCC(c3nc(C4CCOCC4)no3)C2)cc1OC` (stereo not given): the “activity, negative = inhibition” value is inactive: 0.0138%.
With `COCCN1C[C@H]2CN(C(=O)c3ccccc3OC)CCN2C1=O` the figure was inactive: -2.11% [at 57.5 µM]; with `O=C(NC1CCCC1)N1CC(c2nnc(-c3ccncc3)o2)C2(CCOCC2)C1` (stereo not given), inactive: -7.8%; with `O=C(NCCc1csc(-c2cnccn2)n1)C1CC2(CCNCC2)CN1` (stereo not given), inactive: -7.69%.
On to `COc1ccc(-c2ccc3ncc(Nc4ccc(CCO)cc4)n3n2)cn1`, for which the “activity, negative = inhibition” value was inactive: -0.973% [at 57.5 µM].
As for `COc1cccc(Nc2ccc3c(n2)C(C)(C(=O)NCCc2cnc[nH]2)CN(C)C3)c1` (stereo not given), the “activity, negative = inhibition” value is inactive: 6.74% [at 57.5 µM].
Turning to `O=C(NCCc1ccccc1)C1CCN(C(=O)c2ncn3c2COC(c2ccc(F)cc2)C3)CC1` (stereo not given), the “activity, negative = inhibition” value is inactive: 5.21%.
For the compound `COCCOc1ccnc(-c2noc([C@@H]3CCCN3Cc3ccc(C(=O)O)cc3)n2)c1`, the “activity, negative = inhibition” value is inactive: -9.09% [at 57.5 µM].
In the case of `CSCC(=O)N1C[C@@H](NC(=O)Nc2ccc(F)cc2F)C[C@H]1C(=O)N(C)CC(N)=O`, the “activity, negative = inhibition” value was inactive: -15%.
For `COc1cccc(C(=O)N[C@H]2[C@H](O)[C@H](O)C[C@@H]2c2ccc(N3CCOCC3)nc2)c1` the value was inactive: -3.8% [at 57.5 µM]; for `CC(C)C[C@@H]1N[C@H](C(=O)NCc2cccs2)Cc2c[nH]c3cccc1c23`, inactive: -5.41% [at 57.5 µM].
Consider `O=C(NCc1nc(-c2ccncc2)n[nH]1)[C@H]1CCC[C@H](O)C1`, for which the “activity, negative = inhibition” value is inactive: -10.4%.
Turning to `O=c1cc(-c2ccccn2)oc2c(Nc3cccnc3)nccc12`, the “activity, negative = inhibition” value was inactive: 0.933% [at 57.5 µM].
Regarding `CCC1C(=O)N(C)CCN1C(=O)c1coc(COc2ccc3c(c2)OCO3)n1` (stereo not given), the “activity, negative = inhibition” value was inactive: 10%.
Take `COC(C)c1ccc(-c2cc(C(=O)O)cc(S(=O)(=O)NC(C)C)c2)cc1` (stereo not given): the “activity, negative = inhibition” value was inactive: -6.09%.
On to `OC1CC(c2cc(NCCCn3ccc4ccccc43)ncn2)C1` (stereo not given), for which the “activity, negative = inhibition” value was inactive: 1.6%.
For `CNS(=O)(=O)CCNc1nccc(-c2cc(C(=O)O)ccn2)n1` the value was inactive: -23.4%; for `COC[C@H]1C[C@@H](NS(=O)(=O)c2cccc(F)c2)[C@H](O)[C@@H]1O`, inactive: -0.036% [at 57.5 µM].
With `NS(=O)(=O)c1ccc(-n2nc(-c3ccncc3)nc2C2CCOC2)cc1` (stereo not given) the figure was inactive: 0.0285%.
As to `CN1CCC(NC[C@H]2COCc3nc4cc(S(C)(=O)=O)ccc4n32)CC1`, the “activity, negative = inhibition” value was inactive: 4.08% [at 57.5 µM].
